Results deposited as PubChem BioAssay AID652243 (Drosophila RNAi Screening Center, 2013)

- Purpose: 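Fly regulators of androgen-dependent reporter output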 (primary screen)
- System: Drosophila S2R+ cells
- Reagents: long dsRNA against Drosophila genes
- Time to read-out: 72 h (48 h, then 24 h hormone)
- Treatment: synthetic androgen R1881 at 10 nM for 24 h
- Measured: 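Firefly light from an androgen-responsive reporter and Renilla control light per well, raw and unnormalised, for each of two replicates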
- Reading the numbers: firefly reporter light: higher = more light from androgen-responsive reporter; Renilla control light: higher = more constitutive control signal (cell number, transfection)
- Call rule: 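Hit when the log firefly-to-Renilla ratio dropped or increased by a fixed fold versus the mean of GFP or LacZ controls across duplicate plates; lowering cut given as 1.5 and as 3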
- Calls: active = hit: reporter lowered or raised; inactive = no hit
The deposit covers about 24,000 reagents; shown is a random part of those with a known target gene and a result. In the full data, 246 (1%) are marked active. 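Plates not normalised; calls are printed but the firefly/Renilla ratio behind them is not deposited; fold cut for lowering reported inconsistently.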 The raw values are shown without normalisation. The record does not give: the amount of reagent.

target gene	amplicon	firefly reporter light, replicate 1	firefly reporter light, replicate 2	Renilla control light, replicate 1	Renilla control light, replicate 2	activity call
B4	DRSC01868	8.73e5	8.01e5	1.96e6	2.02e6	inactive
B4	DRSC03175	3.07e5	3.36e5	1.57e6	2.11e6	inactive
Dlic (Dynein light intermediate chain)	DRSC19824	1.13e5	89930	7.10e5	5.53e5	inactive
CG7747	DRSC07038	8.73e5	1.01e6	1.87e6	1.63e6	inactive
CG7747	DRSC26745	6.77e5	5.31e5	7.03e5	5.53e5	inactive
CG6067	DRSC18399	91308	1.98e5	1.58e6	1.50e6	inactive
Sec15 (Secretory 15)	DRSC16179	2.87e5	3.04e5	3.59e6	3.47e6	inactive
Sec15 (Secretory 15)	DRSC29670	2.49e5	3.70e5	8.34e5	8.34e5	inactive
Cyp12c1 (Cytochrome P450 12c1)	DRSC11125	1.00e5	72728	5.04e5	4.77e5	inactive
Cyp12c1 (Cytochrome P450 12c1)	DRSC24262	4.92e5	3.49e5	5.72e5	5.23e5	inactive
Obp85a (Odorant-binding protein 85a)	DRSC14362	1.50e5	1.89e5	2.80e6	3.03e6	inactive
FucTB (alpha1,3-fucosyltransferase B)	DRSC02745	1.46e5	1.75e5	1.23e6	1.14e6	inactive
rhi (rhino)	DRSC05996	60075	64836	1.24e6	1.24e6	inactive
CG13059	DRSC09942	4.21e5	3.66e5	3.27e6	2.30e6	inactive
PpD6 (Protein phosphatase D6)	DRSC00774	84089	92929	8.18e5	6.40e5	inactive
PpD6 (Protein phosphatase D6)	DRSC23331	7.78e5	8.76e5	1.66e6	1.43e6	inactive
CG45263	DRSC14360	77068	87987	2.14e6	1.89e6	inactive
CG45263	DRSC14361	58003	61895	1.49e6	1.33e6	inactive
CG45263	DRSC14363	69410	84816	2.24e6	1.84e6	inactive
CG45263	DRSC24974	1.08e6	1.11e6	8.13e5	1.11e6	inactive
Grx3 (Glutaredoxin 3)	DRSC02966	9.33e5	9.41e5	1.74e6	2.71e6	inactive
gd (gastrulation-defective)	DRSC20336	4.10e5	4.21e5	2.75e6	3.15e6	inactive
Arp8 (Actin-related protein 8)	DRSC20059	1.19e5	1.19e5	7.05e5	6.67e5	inactive
Arp8 (Actin-related protein 8)	DRSC26432	2.79e5	2.80e5	8.36e5	7.21e5	inactive

A run of entries from the list above, for reference:
target gene	amplicon	firefly reporter light, replicate 1	firefly reporter light, replicate 2	Renilla control light, replicate 1	Renilla control light, replicate 2	activity call
CG7747	DRSC26745	6.77e5	5.31e5	7.03e5	5.53e5	inactive
CG6067	DRSC18399	91308	1.98e5	1.58e6	1.50e6	inactive
